Experimental data: PubChem BioAssay AID1487 (National Center for Advancing Translational Sciences (NCATS), 2009)
This is one part of the list. Shown are side measurements of this screen, not its main read-out; they come without a call. Compounds called inactive in the main read-out are mostly missing here. The note in brackets gives the kind of curve behind each potency; many fits are weak.

Assay: qHTS Assay for Modulators of Lamin A Splicing
Details: HeLa LMNA splicing GFP/RFP minigene ratio, 48 h
Procedure, shortened: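 S3 HeLa cells stably expressing lamin A-EGFP splicing minigene plus DsRed2, 600 cells/well, 48 h compound exposure at 37C. Laser-scanning cytometry; analysed as GFP (500-530 nm)/RFP (575-640 nm) total intensity ratio; 0.5% DMSO vehicle.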

[1] = measured here: GFP splicing reporter channel
[2] = measured here: RFP viability control channel

Compound | AC50 [1] | AC50 [2]
O=C(/C=C/c1ccccc1)Nc1nc(-c2ccncc2)cs1 | 20 µM [falling, partial curve, poor fit] | 0.0141 µM [falling, full curve, poor fit]
Cc1ccc(-c2nnc3n2N=C(c2ccccc2)CS3)cc1 | – | 10 µM [rising, partial curve, poor fit]
Cc1ccc(S(=O)(=O)N2CCC(C(=O)N/N=C/c3ccncc3)CC2)cc1 | – | 5.01 µM [falling, partial curve, poor fit]
COc1ccc(-c2csc(C3=C(O)CN(Cc4ccc(Cl)cc4)C3=N)n2)cc1OC | – | 17.8 µM [falling, single point]
Nc1ncnc2c1ncn2C1OC(CO)C(O)C1O (configuration not stated) | 0.282 µM [falling, full curve] | 22.4 µM [falling, partial curve, poor fit]
Cc1cc(C)nc(Nc2nc(=O)c3ccccc3s2)n1 | 35.5 µM [rising, single point] | 17.8 µM [rising, single point]
Cc1cc(C)nc(Nc2n[nH]c(-c3ccc(C(C)(C)C)cc3)n2)n1 | 0.0501 µM [falling, full curve] | –
Cc1c(C)c2c(c(C)c1O)CC[C@@](C)(CCC[C@@H](C)CCC[C@@H](C)CCCC(C)C)O2 | – | 2.82 µM [rising, single point]
COc1ccccc1-c1nc(C#N)c(N2CCN(c3cccc(Cl)c3)CC2)o1 | 14.1 µM [rising, single point] | 12.6 µM [rising, partial curve]
CCSc1nc2c(c(=O)n1Cc1ccccc1)SC(C)C2 (configuration not stated) | – | 31.6 µM [rising, single point]
Cc1ccc(NC(CNS(=O)(=O)c2ccc(Cl)cc2)c2ccccc2)cc1 (configuration not stated) | 25.1 µM [falling, single point] | 22.4 µM [falling, partial curve]
COc1ccccc1-n1c(CCn2nc(C)c(Br)c2C)n[nH]c1=S | 35.5 µM [rising, single point] | 35.5 µM [rising, single point]
CCOc1ccccc1NC(=O)N1CCC(c2nc3ccc(C)cc3[nH]2)CC1 | 17.8 µM [rising, partial curve, poor fit] | –
Cc1nn(-c2ccccc2)c2sc(C(=O)N3CCCCC3)cc12 | 7.08 µM [rising, partial curve, poor fit] | 12.6 µM [rising, partial curve]
c1cc2c(cc1-c1cnc3n1CCC3)OCCO2 | – | 5.01 µM [falling, partial curve]
Cc1ccc2[nH]c(=O)c(CN(Cc3cccnc3)C(=O)c3ccncc3)cc2c1 | – | 35.5 µM [rising, single point]
COc1cccc2cccc(/C=N/n3cnnc3)c12 | – | 14.1 µM [rising, single point]
CC(C)c1ccc2c(c1)CCC1C(C)(C(N)=O)CCCC21C (configuration not stated) | 35.5 µM [rising, single point] | 12.6 µM [rising, single point]
CC(C)c1ccc(N(C(=O)c2cc3ccccc3oc2=O)C2C=CS(=O)(=O)C2)cc1 (configuration not stated) | – | 8.91 µM [rising, partial curve]
CSc1ccc(NC(=O)N2CC=C(n3c(=O)[nH]c4ccccc43)CC2)cc1 | 31.6 µM [rising, single point] | 31.6 µM [rising, single point]
CCOC(=O)c1ccc(-n2c(CN(CC)CC)nc3ccc([N+](=O)[O-])cc3c2=O)cc1 | 3.55 µM [rising, partial curve, poor fit] | 2.51 µM [rising, partial curve, poor fit]
Oc1ccc2ccccc2c1/C=N/Nc1nnc(-c2ncc[nH]2)c2ccccc12 | – | 7.94 µM [rising, partial curve]
CN(C)c1nc(-c2ccc3c(c2)OCO3)nc2ccccc12 | 20 µM [falling, single point] | –
COc1ccc(NC(=O)CSc2nc3ccccc3nc2Cc2ccc(C)cc2)cc1Cl | 0.2 µM [rising, partial curve] | –
O=C(CSc1nc2ccccc2c(=O)[nH]1)Nc1ccc(S(=O)(=O)N2CCCC2)cc1 | 11.2 µM [rising, partial curve] | 11.2 µM [rising, partial curve]
O=C1C2CC=CCC2C(=O)N1c1ccc(NCCc2ccc(Cl)cc2)c([N+](=O)[O-])c1 (configuration not stated) | 12.6 µM [rising, partial curve, poor fit] | 15.8 µM [rising, partial curve]
O=C(Nc1cccc(Cl)c1)NC1CCCCC1 | – | 11.2 µM [rising, single point]

Compound | AC50 [1] | AC50 [2]
CCN(CC)c1ccc2cc(-c3nc(-c4ccc(Cl)cc4Cl)cs3)c(=O)oc2c1 | – | 12.6 µM [falling, partial curve, poor fit]
CCn1cc([N+](=O)[O-])c(C(=O)Nc2nc(-c3ccc(C)cc3)c(C)s2)n1 | 35.5 µM [falling, single point] | 35.5 µM [falling, single point]
Cc1c(-c2ccccn2)c(=O)[nH]n1-c1ccc(F)cc1 | – | 2 µM [rising, partial curve, poor fit]
CCOC(=O)c1ccccc1NS(=O)(=O)c1ccc(C)cc1 | – | 12.6 µM [rising, single point]
COc1ccc(-c2nc3c4ccccc4ccn3c2CN2CCCCC2)cc1 | – | 10 µM [rising, single point]
COC(=O)c1ccc(C(=O)OC)c(NC(=O)CN(C)Cc2cccc(Cl)c2Cl)c1 | 12.6 µM [rising, partial curve] | 20 µM [rising, partial curve]
CCCCCCCCCCCCCCCCCC(=O)OC[C@@H](O)[C@H]1OC[C@H](O)[C@H]1O | 0.708 µM [falling, full curve, poor fit] | –
N=c1ccn2c(n1)O[C@H]1[C@H](O)[C@@H](CO)O[C@H]12 | 0.00631 µM [falling, full curve] | 0.0794 µM [rising, full curve, poor fit]
CCCCNC(=O)c1onc(CSc2ccc(C(C)C)cc2)c1C(=O)O | – | 5.62 µM [falling, single point]
COc1ccc(N2CCN(c3cc(C)c4ccc(C)cc4n3)CC2)cc1 | 22.4 µM [falling, single point] | –
O=c1[nH]c(CN2CCN(c3ccc([N+](=O)[O-])cc3)CC2)nc2ccsc12 | 10 µM [rising, partial curve] | 12.6 µM [rising, partial curve]
COCCn1nnnc1C(c1cc2ccc(C)cc2[nH]c1=O)N(Cc1ccco1)Cc1cccs1 (configuration not stated) | 15.8 µM [rising, partial curve] | 12.6 µM [rising, partial curve]
CCCCOc1ccc(C(=O)NCc2ccncc2)cc1 | – | 22.4 µM [rising, single point]
COCCCNC(=O)Cn1cc(/C=C(\C#N)C(=O)N2CCN(c3ccccc3)CC2)c2ccccc21 | – | 10 µM [rising, partial curve]
COc1ccc(O)c(C(=O)/C=C/c2cc3ccccc3o2)c1 | 35.5 µM [falling, single point] | 8.91 µM [falling, partial curve]
COc1ccc(Cl)cc1NC(=O)CN(C)C(C)C(=O)NCC1CCCCC1 (configuration not stated) | 20 µM [rising, partial curve, poor fit] | 28.2 µM [rising, single point]
CCCCC[C@H](O)/C=C/[C@@H]1[C@@H](C/C=C\CCCC(=O)O)[C@H]2CO[C@@H]1C2 | – | 35.5 µM [rising, single point]
CCCc1nn2c(=O)cc(COC(=O)c3cccs3)nc2s1 | 0.0158 µM [falling, full curve, poor fit] | –
COc1cc(C2C(C#N)=C(N)Oc3cc(N(C)C)ccc32)cc2c1OCO2 (configuration not stated) | 0.158 µM [falling, full curve] | 0.251 µM [falling, full curve]
O=C(c1cc2nc(-c3ccco3)cc(C(F)(F)F)n2n1)N1CCN(c2ccccn2)CC1 | – | 31.6 µM [rising, single point]
O=S(=O)(c1cccc(F)c1)N1CCC(CO)(Cc2cccc(F)c2)CC1 | 35.5 µM [falling, single point] | –
COc1ccc([N+](=O)[O-])cc1NC(=O)Nc1cccc(Cl)c1 | 11.2 µM [rising, partial curve] | 10 µM [rising, partial curve]
Cc1[nH]c2ccccc2c1C(=O)CCl | 0.112 µM [falling, partial curve, poor fit] | –
CN1C(=O)Cc2cc(S(=O)(=O)N3CCN(c4cccc(C(F)(F)F)c4)CC3)ccc21 | 0.178 µM [falling, full curve, poor fit] | 2.82 µM [falling, full curve]
Cc1nc2sc(C(c3ccc(Cl)cc3)N3CCN(c4ccccc4F)CC3)c(O)n2n1 (configuration not stated) | 11.2 µM [rising, partial curve, poor fit] | 17.8 µM [rising, single point]
COc1ccccc1C(=O)NCc1nnnn1-c1ccc(C)c(C)c1 | 0.316 µM [rising, full curve, poor fit] | 0.282 µM [rising, full curve, poor fit]

Quoted at random: two entries already listed
Compound | AC50 [1] | AC50 [2]
COc1ccc(O)c(C(=O)/C=C/c2cc3ccccc3o2)c1 | 35.5 µM [falling, single point] | 8.91 µM [falling, partial curve]
CCCCC[C@H](O)/C=C/[C@@H]1[C@@H](C/C=C\CCCC(=O)O)[C@H]2CO[C@@H]1C2 | – | 35.5 µM [rising, single point]
